According to PMC11260166:
These are yes or no findings as the source states them, for the method shown. Binding seen in cells or lysates may run through a third protein. For some of these results: A result given as binding can be weak or reduced; the word gives no strength. Where a sequence is shown, tags or fusion partners need not be part of it.

Legend:
[1] = target: T1, EGFP-FAM110A-Δ40-61 (human) (UniProt Q9BQ89); test: co-IP; immunoprecipitation of EGFP-tagged FAM110A variants from transiently transfected HEK293 cells in mitosis; actin and tubulin detected by immunoblotting
T1 sequence: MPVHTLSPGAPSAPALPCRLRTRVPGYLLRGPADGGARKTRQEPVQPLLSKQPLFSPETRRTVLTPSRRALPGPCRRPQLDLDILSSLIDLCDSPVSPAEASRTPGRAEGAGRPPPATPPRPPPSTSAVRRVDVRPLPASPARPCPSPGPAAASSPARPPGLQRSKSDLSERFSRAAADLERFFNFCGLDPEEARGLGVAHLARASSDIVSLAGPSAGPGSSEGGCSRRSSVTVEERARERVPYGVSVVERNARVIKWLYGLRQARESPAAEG

EGFP-FAM110A-WT (human) [2] = target: T2, EGFP-FAM110A-WT (human) (UniProt Q9BQ89); test: as above
T2 sequence: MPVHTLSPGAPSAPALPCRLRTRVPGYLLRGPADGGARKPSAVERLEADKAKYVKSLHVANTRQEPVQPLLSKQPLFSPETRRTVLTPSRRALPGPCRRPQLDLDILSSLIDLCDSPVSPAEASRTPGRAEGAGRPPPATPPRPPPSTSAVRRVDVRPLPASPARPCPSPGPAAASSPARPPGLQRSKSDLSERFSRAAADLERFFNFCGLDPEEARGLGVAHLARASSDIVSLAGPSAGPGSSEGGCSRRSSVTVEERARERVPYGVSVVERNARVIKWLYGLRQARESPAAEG

[3] = target: T3, EGFP-FAM110A-Δ188-221 (human) (UniProt Q9BQ89); test: as above
T3 sequence: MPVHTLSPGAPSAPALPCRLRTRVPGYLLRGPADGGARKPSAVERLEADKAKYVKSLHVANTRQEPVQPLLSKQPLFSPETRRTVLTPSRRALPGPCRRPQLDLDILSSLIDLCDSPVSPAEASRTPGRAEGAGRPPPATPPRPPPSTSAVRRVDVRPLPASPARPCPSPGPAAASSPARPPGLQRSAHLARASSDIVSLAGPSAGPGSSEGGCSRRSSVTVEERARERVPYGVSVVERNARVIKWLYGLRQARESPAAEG

EGFP-FAM110A-WT (human) [4] = target: T2, EGFP-FAM110A-WT (human); test: co-IP; HEK293 cells transfected, arrested in mitosis with NDZ and treated or not with PF670462 for 6 h; pull-down from cell extracts with GFP-Trap, tubulin and actin by immunoblotting

tubulin (human (endogenous in HEK293)) (complex)
binding [1]: binds
binding (EGFP-FAM110A-WT (human) [2]): binds
binding [3]: no binding
binding (EGFP-FAM110A-WT (human) [4]): binds
